{
  "sequences": {"note": "Protein sequences, listed by entry. Tags and fused reporters are not part of them.", "UniProt Q8NER1, whole entry, looked up": "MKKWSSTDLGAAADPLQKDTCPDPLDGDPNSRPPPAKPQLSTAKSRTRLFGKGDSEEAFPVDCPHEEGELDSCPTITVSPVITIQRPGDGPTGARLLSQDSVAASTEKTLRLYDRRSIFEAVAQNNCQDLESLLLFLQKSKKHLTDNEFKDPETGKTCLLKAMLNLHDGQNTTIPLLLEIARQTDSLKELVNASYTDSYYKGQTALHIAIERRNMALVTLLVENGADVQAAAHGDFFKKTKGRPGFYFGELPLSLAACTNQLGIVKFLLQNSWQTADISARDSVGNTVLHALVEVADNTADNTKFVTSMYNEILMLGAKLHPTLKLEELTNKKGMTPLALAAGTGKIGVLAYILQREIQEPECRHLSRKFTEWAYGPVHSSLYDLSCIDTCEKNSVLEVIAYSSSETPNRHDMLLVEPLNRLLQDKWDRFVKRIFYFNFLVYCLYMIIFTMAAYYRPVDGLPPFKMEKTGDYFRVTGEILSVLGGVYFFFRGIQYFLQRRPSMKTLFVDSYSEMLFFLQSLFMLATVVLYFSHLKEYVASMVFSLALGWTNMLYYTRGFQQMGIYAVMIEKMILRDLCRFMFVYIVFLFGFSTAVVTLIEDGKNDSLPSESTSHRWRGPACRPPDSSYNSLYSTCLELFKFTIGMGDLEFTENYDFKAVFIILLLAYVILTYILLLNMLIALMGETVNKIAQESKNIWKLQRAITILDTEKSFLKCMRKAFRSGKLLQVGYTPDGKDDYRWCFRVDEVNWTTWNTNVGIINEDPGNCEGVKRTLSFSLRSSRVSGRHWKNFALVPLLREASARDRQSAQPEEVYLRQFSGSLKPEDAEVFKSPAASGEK"},
  "source": "PubChem BioAssay AID540275",
  "about": "(National Center for Advancing Translational Sciences (NCATS), 2011)",
  "note": "Among all 320,000 compounds or so, about 620 (0.19%) were called active. Inconclusive means that the source gave no clear call. Such entries were picked first, then a sample of the others. Rule as the data show it: active = activation above about 80%; inconclusive = between about 30% and that limit; inactive = weaker than that.",
  "data": [
    {"target": "Transient receptor potential cation channel subfamily V member 1 (Homo sapiens) (UniProt Q8NER1)", "test": "HTS Assay for Compounds that Act as Agonists of the Vanilloid Receptor 1; also: 0% is about no effect", "details": "TRPV1-expressing cells, Fluo-8 calcium influx, agonist mode; at 8.33 µM, hits give high values", "summary_of_the_method": "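Fluo-8 calcium influx in TRPV1-expressing cells, kinetic read (ex 480/em 520 nm). Compound added and read 3 min for agonist activity, followed by capsaicin at EC20 final and 2 min further read for enhancement.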", "values": [
      {"smiles": "Cc1ccc(OCCNC(=O)C2CCCCC2)cc1", "activation": "inconclusive: 44.1%"},
      {"smiles": "CCOC(=O)/C(=N\\Nc1ncnc2ccccc12)c1ccc(OC)cc1", "activation": "inconclusive: 58.4%"},
      {"smiles": "COc1ccc2[nH]c(CN3CCC(n4nccc4NC(=O)C4CC4)CC3)c(C)c2c1", "activation": "inactive: 1.39%"},
      {"smiles": "O=C1CCCC/C1=N\\Nc1ccc(C2CCCCC2)cc1", "activation": "inconclusive: 56.6%"},
      {"smiles": "NC(=O)c1ccc(NC(=O)CCc2nc3ccccc3s2)cc1", "activation": "inconclusive: 45.4%"},
      {"smiles": "CS(=O)(=O)N(CCc1ccccc1)CC(=O)N1CCN(Cc2ccc3c(c2)OCO3)CC1", "activation": "inactive: -1.74%"},
      {"smiles": "COc1cc(NC(=O)CCc2nnc3ccc(N4CCN(c5cccc(OC)c5)CC4)nn23)cc(OC)c1", "activation": "inactive: 0.213%"},
      {"smiles": "Cc1ccc(C(=O)NC(=S)Nc2cccc(NC(=O)c3ccccc3Cl)c2)cc1[N+](=O)[O-]", "activation": "inactive: -2.26%"},
      {"smiles": "Cc1ccn2cc(C(=O)Nc3ccccc3N3CCOCC3)nc2c1", "activation": "inconclusive: 46.1%"},
      {"smiles": "CC(Oc1ccccc1)C(=O)N1CCc2ccccc2C1", "note": "(centres undefined)", "activation": "inconclusive: 35.1%"},
      {"smiles": "COc1ccccc1Nc1nc(N)nc(CN2CCN(Cc3ccccc3)CC2)n1", "activation": "inactive: -1.39%"},
      {"smiles": "CC(CNC(=S)Nc1cc(F)cc(F)c1)CSc1ccc(Cl)cc1", "note": "(centres undefined)", "activation": "inconclusive: 33.5%"},
      {"smiles": "COc1ccc(Cn2c(SCC(=O)NCc3ccco3)nc3ccsc3c2=O)cc1", "activation": "inconclusive: 50.6%"},
      {"smiles": "CCOC(=O)c1c(NC(NC(C)=O)C(Cl)(Cl)Cl)sc2c1CCCC2", "note": "(centres undefined)", "activation": "inconclusive: 38.4%"},
      {"smiles": "COc1cc(OC)cc(C(=O)NC(C(=O)Nc2ccc3c(c2)OCO3)C(C)C)c1", "note": "(centres undefined)", "activation": "inconclusive: 36.7%"},
      {"smiles": "NC(=O)c1ccc(Oc2ccc(Cl)cc2)c([N+](=O)[O-])c1", "activation": "inactive: 14.5%"},
      {"smiles": "Cn1nccc1/C=N\\NC(=O)c1ccc(Cl)cc1", "activation": "inconclusive: 53.4%"},
      {"smiles": "CCCCNc1c(-c2ccc(SC3CCCCC3)c(OC)c2)nc2ccc(Cl)cn12", "activation": "inconclusive: 61.7%"},
      {"smiles": "CCOc1ccc(OCc2ccc(C(=O)N/N=C(\\C)c3ccccn3)cc2)cc1", "activation": "inactive: 5.64%"},
      {"smiles": "Clc1cccc(Cl)c1/C=C/c1nc2ccccc2[nH]1", "activation": "inconclusive: 62.7%"},
      {"smiles": "CC(C)CC(NC(=O)c1ccc(Cl)cc1)C(=O)O", "note": "(centres undefined)", "activation": "inactive: -6.57%"},
      {"smiles": "O=C(NCCCCc1ccccc1)C1CCCC1", "activation": "inconclusive: 35.1%"},
      {"smiles": "S=c1[nH]nc(COc2ccccc2)n1/N=C/c1cccnc1", "activation": "inactive: 3.68%"},
      {"smiles": "N#Cc1ccc(NC(=O)c2cc(S(=O)(=O)N3CCOCC3)ccc2N2CCCC2)cc1", "activation": "inconclusive: 32.6%"},
      {"smiles": "CC(c1ccccc1)N(CC(=O)NC1CCCCC1)S(=O)(=O)c1cccc(C(F)(F)F)c1", "note": "(centres undefined)", "activation": "inconclusive: 52.6%"},
      {"smiles": "CCN(CC)S(=O)(=O)c1cccc(C(=O)N[C@H](C(=O)O)C(C)C)c1", "activation": "inactive: 11.8%"},
      {"smiles": "c1ccc(Cn2nnc3c(NCCN4CCOCC4)ncnc32)cc1", "activation": "inactive: 1.96%"},
      {"smiles": "O=C(N/N=C/c1cn(-c2ccccc2)nc1-c1cccs1)c1ccncc1", "activation": "inconclusive: 34.9%"},
      {"smiles": "CCOC(=O)/C(=C/C=C/c1ccccc1)NC(=O)c1ccccc1", "activation": "inconclusive: 34.2%"},
      {"smiles": "O=C(NCC1(c2ccccc2)CCCC1)c1cccc(Br)c1", "activation": "inconclusive: 37.5%"},
      {"smiles": "COc1ccc(/C=C2\\CCC/C(=C\\C=N\\N(C)C)C2=O)cc1", "activation": "inactive: 8.02%"},
      {"smiles": "Cc1ccc2oc(=O)n(CCCOc3ccccc3)c2c1", "activation": "inactive: 13.7%"},
      {"smiles": "O=C(c1ccc2n[nH]nc2c1)N1CCN(c2ccc(C(F)(F)F)cn2)CC1", "activation": "inconclusive: 51%"},
      {"smiles": "NC(=O)c1ccccc1NC(=O)/C=C/c1c(Cl)cccc1Cl", "activation": "inconclusive: 53.7%"},
      {"smiles": "Cc1ccc(C(C)C)c(OCC(=O)N/N=C/c2cccn2C)c1", "activation": "inconclusive: 52.6%"},
      {"smiles": "O=C(NCCN1CCN(C(=O)c2ccc([N+](=O)[O-])cc2)CC1)C(=O)NCc1ccccc1", "activation": "inactive: 9.42%"},
      {"smiles": "c1ccc(-c2nnc(N3CCN(c4ccccc4)CC3)nc2-c2ccccc2)cc1", "activation": "inconclusive: 34%"},
      {"smiles": "CC(C)OC(=O)c1ccc(NC(=O)c2cncc(Br)c2)cc1", "activation": "inconclusive: 36.9%"},
      {"smiles": "Cc1nc(OCC(C)C)c2sc3nc4c(cc3c2n1)COC(C)(C)C4", "activation": "inactive: -1.79%"},
      {"smiles": "O=C(CNc1ccc(Br)cc1)c1ccc(O)cc1", "activation": "inconclusive: 35.7%"},
      {"smiles": "O=C(/C=C/Nc1cccc(F)c1)c1ccco1", "activation": "inconclusive: 38.8%"},
      {"smiles": "CC1C(=O)N(Cc2ccccc2F)c2ccccc2N1C(=O)c1c(F)cccc1F", "note": "(centres undefined)", "activation": "inconclusive: 43.9%"},
      {"smiles": "Cc1cc(SCC(=O)Nc2ccc(O)cc2)n2ncc(-c3ccccc3)c2n1", "activation": "inconclusive: 46.4%"},
      {"smiles": "COc1ccc(C(=O)C2CCN(C(=O)c3ccc(OC)cc3)CC2)cc1", "activation": "inactive: 2.77%"},
      {"smiles": "Cc1cccc(NC(=O)c2ccc(Cl)c(S(=O)(=O)N3CCc4ccccc43)c2)n1", "activation": "inconclusive: 41.2%"},
      {"smiles": "O=c1c2ccccc2sn1-c1nccs1", "activation": "inactive: 22%"},
      {"smiles": "C/C(=N\\NC(=O)c1ccc2c(c1)OCO2)c1cccnc1", "activation": "inconclusive: 48%"},
      {"smiles": "CN(C)c1ccc(C(C(=O)NCC2CCCO2)N(C(=O)c2snc(C(N)=O)c2N)c2ccccc2)cc1", "note": "(centres undefined)", "activation": "inactive: 1.99%"},
      {"smiles": "CSCCC(NS(=O)(=O)c1ccc(Cl)cc1)C(=O)OCC(=O)c1c(C)[nH]c2ccccc12", "note": "(centres undefined)", "activation": "inactive: 1.14%"},
      {"smiles": "CCC(C)NC(=O)CNC(=S)N(Cc1ccc(F)cc1)C1CCCCC1", "note": "(centres undefined)", "activation": "inconclusive: 53%"},
      {"smiles": "O=c1c2cc(F)ccc2sn1-c1ccccc1", "activation": "inactive: 20.5%"},
      {"smiles": "Cc1ccc(NC(=O)Nc2cccc([N+](=O)[O-])c2)cc1F", "activation": "inconclusive: 62.7%"},
      {"smiles": "Cc1ccc(CNC(=O)c2cc(S(=O)(=O)N3CCCCC3)ccc2N2CCOCC2)cc1", "activation": "inconclusive: 36.7%"},
      {"smiles": "CC(C)(C)NC(=O)/C=C/c1cccc(C(F)(F)F)c1", "activation": "inconclusive: 54.3%"},
      {"smiles": "CCOC(=O)c1ccc(Nc2nnc(C(C)(C)C)c(=O)[nH]2)cc1", "activation": "inconclusive: 31.9%"},
      {"smiles": "CCCCNc1c2c3c(cccc3n(C)c1=O)C(=O)c1ccccc1-2", "activation": "inconclusive: 79.1%"},
      {"smiles": "O=C(N/N=C/c1cn(-c2ccccc2)nc1-c1cccnc1)c1ccc(F)cc1", "activation": "inconclusive: 44%"},
      {"smiles": "CC(=O)c1ccc(-c2ccccc2[C@H]2[C@H]3C=CC[C@@H](C)[C@@H]3C(=O)N2Cc2ccccc2)cc1", "activation": "inconclusive: 34.1%"},
      {"smiles": "COc1ccc2cc(C(=O)Nc3ccc(Cl)cc3)sc(=O)c2c1OC", "activation": "inactive: 0.743%"},
      {"smiles": "O=C(COn1nnc2ccc(Cl)cc21)Nc1ccc(F)cc1", "activation": "inconclusive: 31.4%"},
      {"smiles": "CC(C)OC(=O)c1cccnc1N1CCN(c2cccc(Cl)c2)CC1", "activation": "inconclusive: 64.6%"},
      {"smiles": "O=C1/C(=C/c2ccc(O)c(O)c2)Oc2cc(O)ccc21", "activation": "inactive: 4.83%"},
      {"smiles": "Cc1cccc(C)c1OCc1cc(C(=O)NCc2cn(C)nc2C)no1", "activation": "inconclusive: 51.5%"},
      {"smiles": "O=C(NC(=S)NC(=O)c1ccccc1F)c1ccccc1F", "activation": "inactive: -1.37%"},
      {"smiles": "CCOC(=O)c1ccc(-c2c(-c3cc(OC)c(OC)c(OC)c3)noc2C)cc1F", "activation": "inconclusive: 49.8%"},
      {"smiles": "O=C(NC(=S)NC1C2CC3CC(C2)CC1C3)c1ccccc1", "note": "(centres undefined)", "activation": "inconclusive: 32%"},
      {"smiles": "O=C(COc1ccc2c(c1)OCO2)NC12CC3CC(CC(C3)C1)C2", "activation": "inconclusive: 53.6%"},
      {"smiles": "Cc1ccc(NC(=O)Cc2ccc(F)cc2)cc1", "activation": "inactive: 27.8%"},
      {"smiles": "CC1CCc2c(sc3ncnc(NCCCOC(C)C)c23)C1", "note": "(centres undefined)", "activation": "inconclusive: 49.5%"},
      {"smiles": "O=C1C=C(Nc2ccc(Cl)cc2)CC(c2ccco2)C1", "note": "(centres undefined)", "activation": "inconclusive: 49.1%"},
      {"smiles": "Cc1cc(C(C)(C)C)oc1C(=O)OCC(=O)NC1CCCCC1", "activation": "inconclusive: 43.6%"},
      {"smiles": "COc1ccc(-c2noc(N3CCC(C(=O)NCc4ccccc4Cl)CC3)n2)cc1", "activation": "inconclusive: 42.5%"},
      {"smiles": "CC(C)(C)n1nnnc1C(c1ccccn1)N1CCN(C(c2ccccc2)c2ccccc2)CC1", "note": "(centres undefined)", "activation": "inconclusive: 56.4%"},
      {"smiles": "COc1ccc(C(=O)N(CCc2ccccc2)Cc2ccccc2)cc1S(=O)(=O)N1CCOCC1", "activation": "inconclusive: 30.1%"},
      {"smiles": "CCCC(=O)Nc1nc(C)c(-c2csc(Nc3ccccc3OC)n2)s1", "activation": "inactive: 5.42%"},
      {"smiles": "Cc1nn(-c2ccccc2)nc1C(=O)Nc1ccc2[nH]ncc2c1", "activation": "active: 90.8%"},
      {"smiles": "CCN(CC)C(=S)SC1CCCCN(C(=O)c2ccc(F)cc2)C1=O", "note": "(centres undefined)", "activation": "inconclusive: 30.1%"},
      {"smiles": "Cc1cccc(C)c1OCCCn1c(CCNC(=O)C2CCCCC2)nc2ccccc21", "activation": "inconclusive: 45.8%"},
      {"smiles": "O=C1C2N=NN(CC(=O)N3N=C(c4cccc5ccccc45)CC3c3ccccc3)C2C(=O)N1c1ccccc1", "note": "(centres undefined)", "activation": "inconclusive: 67.3%"},
      {"smiles": "COc1c(Cl)cc(C(=O)Nc2ccc(Cl)cn2)cc1Cl", "activation": "inconclusive: 45.1%"},
      {"smiles": "CCNC(=S)N1CCC(C(=O)c2ccc3c(c2)OCCO3)CC1", "activation": "inconclusive: 40.3%"},
      {"smiles": "C=CCC1=C/C(=C\\c2c(N)n3nc(CC(=O)N4CCCC4)sc3nc2=O)C=C(OC)C1=O", "activation": "inconclusive: 73.1%"},
      {"smiles": "CC(C)(C)c1ccc(C(=O)NCC(=O)N2CCCC2)cc1", "activation": "inconclusive: 41.5%"},
      {"smiles": "S=c1[nH]nc(COc2ccccc2)n1C1CCCCC1", "activation": "inactive: -13.4%"},
      {"smiles": "COc1ccc(C(=O)N2CCCC(Nc3ccc(C)c(C)c3)C2)cc1F", "note": "(centres undefined)", "activation": "inconclusive: 52.9%"},
      {"smiles": "O=C(c1ccc(-c2cccc(Cl)c2Cl)o1)N1CCOCC1", "activation": "inconclusive: 55.6%"},
      {"smiles": "O=C1/C(=C/C=C/c2ccccc2)Oc2c1ccc(O)c2CN1CCN(CCO)CC1", "activation": "inactive: 8.74%"},
      {"smiles": "COc1ccc(S(=O)(=O)N2CCC(C(=O)NCCC3=CCCCC3)CC2)cc1OC", "activation": "inconclusive: 43.5%"},
      {"smiles": "O=C(Cc1ccccc1)NC(=S)Nc1cc(C(F)(F)F)ccc1Cl", "activation": "inconclusive: 67.6%"}
    ]}
  ]
}
